No constants are given. Whether binding was seen depends on the method and setting. In cells and extracts the contact can be indirect. Some binding calls cover weakened binding; strength is not graded here.

The chains behind the UniProt entries cited, without tags or fusion partners.
UniProt Q9TSV5: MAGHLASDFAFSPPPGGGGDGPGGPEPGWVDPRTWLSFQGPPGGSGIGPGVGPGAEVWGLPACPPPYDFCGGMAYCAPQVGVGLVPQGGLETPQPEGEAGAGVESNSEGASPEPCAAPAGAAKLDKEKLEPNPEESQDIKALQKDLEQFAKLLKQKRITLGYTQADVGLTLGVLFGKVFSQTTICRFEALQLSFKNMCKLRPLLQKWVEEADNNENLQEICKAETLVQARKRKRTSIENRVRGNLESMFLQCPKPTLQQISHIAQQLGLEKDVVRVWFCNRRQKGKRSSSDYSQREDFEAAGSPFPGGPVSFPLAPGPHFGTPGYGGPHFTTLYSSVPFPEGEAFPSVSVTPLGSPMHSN

In this assay the target is T1, FOXH1 (FAST1, forkhead activin signal transducer 1) (pig (endogenous in pEPSCs)) (UniProt F1RSP3).
T1 sequence: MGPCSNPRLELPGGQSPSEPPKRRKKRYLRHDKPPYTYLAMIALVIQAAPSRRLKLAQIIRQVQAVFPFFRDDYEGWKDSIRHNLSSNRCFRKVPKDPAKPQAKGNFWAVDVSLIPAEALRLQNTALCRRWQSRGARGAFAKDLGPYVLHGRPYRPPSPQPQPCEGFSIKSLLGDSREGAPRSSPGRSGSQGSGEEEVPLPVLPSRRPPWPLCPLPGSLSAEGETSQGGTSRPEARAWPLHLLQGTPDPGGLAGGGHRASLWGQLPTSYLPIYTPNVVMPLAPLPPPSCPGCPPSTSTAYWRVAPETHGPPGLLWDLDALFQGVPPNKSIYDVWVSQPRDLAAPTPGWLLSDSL
As to the kind of experiment: co-IP; FOXH1 in pEPSCs immunoprecipitated with Flag-conjugated agarose beads; Western blot for FOXH1 and POU5F1. (In general: Immunoblotting shows a protein as a band on a membrane.)

POU5F1 (from UniProt Q9TSV5 1-360): the binding entry is “binds”.

Values taken from PMC12442679.
